Assay results from patent US8603949B2, “Libraries of optimized cytochrome P450 enzymes and the optimized P450 enzymes” (California Institute of Technology, priority 2003, dated 2013).

B1: Chimera 277-365: CYP102A1 heme domain with residues 277-365 from CYP102A2 (protein)
chain: TIKEMPQPKTFGELKNLPLLNTDKPVQALMKIADELGEIFKFEAPGRVTRYLSSQRLIKEACDESRFDKNLSQALKFVRDFAGDGLATSWTHEKNWKKAHNILLPSFSQQAMKGYHAMMVDIAVQLVQKWERLNADEHIEVPEDMTRLTLDTIGLCGFNYRFNSFYRDQPHPFITSMVRALDEAMNKLQRANPDDPAYDENKRQFQEDIKVMNDLVDKIIADRKASGEQSDDLLTHMLNGKDPETGEPLDDENIRYQIITFLIAGHETTSGLLSFATYFLLKHPDKLKKAYEEVDRVLTDAAPTYKQVLELTYIRMILNESLRLWPTAPAFSLYPKEDTVIGGKFPITTNDRISVLIPQLHRDRDIWGDDVEEFRPERFENPSAIPQHAFKPFGNGQRACIGQQFALHEATLVLGMMLKHFDFEDHTNYELDIKETLTLKPEGFVVKAKSKKIPLGGIPSPST
modifications: Chimeric Cytochrome P450 heme group sequence from Bacillus megaterium and Bacillus subtilis
notes: CYP102A1 heme domain with residues 277-365 from CYP102A2
B2: Chimera 165-256: CYP102A1 heme domain with residues 165-256 from CYP102A2 (protein)
chain: TIKEMPQPKTFGELKNLPLLNTDKPVQALMKIADELGEIFKFEAPGRVTRYLSSQRLIKEACDESRFDKNLSQALKFVRDFAGDGLATSWTHEKNWKKAHNILLPSFSQQAMKGYHAMMVDIAVQLVQKWERLNADEHIEVPEDMTRLTLDTIGLCGFNYRFNSYYRETPHPFINSMVRALDEAMHQMQRLDVQDKLMVRTKRQFRYDIQTMFSLVDSIIAERRANGDQDEKDLLARMLNVEDPETGEKLDDENIRFQIITFLIAGHETTSGLLSFALYFLVKNPHVLQKAAEEAARVLVDPVPSYKQVKQLKYVGMVLNEALRLWPTAPAFSLYAKEDTVLGGEYPLEKGDELMVLIPQLHRDKTIWGDDVEEFRPERFENPSAIPQHAFKPFGNGQRACIGQQFALHEATLVLGMMLKHFDFEDHTNYELDIKETLTLKPEGFVVKAKSKKIPLGGIPSPST
modifications: Chimeric Cytochrome P450 heme group sequence from Bacillus megaterium and Bacillus subtilis
notes: CYP102A1 heme domain with residues 165-256 from CYP102A2
B3: Chimera 165-256M: mirror chimera of 165-256, sequences from opposite parents at every position (protein)
chain: KETSPIPQPKTFGPLGNLPLIDKDKPTLSLIKLAEEQGPIFQIHTPAGTTIVVSGHELVKEVCDEERFDKSIEGALEKVRAFSGDGLATSWTHEPNWRKAHNILMPTFSQRAMKDYHEKMVDIAVQLIQKWARLNPNEAVDVPGDMTRLTLDTIGLCGFNYRFNSFYRDQPHPFITSMVRALDEAMNKLQRANPDDPAYDENKRQFQEDIKVMNDLVDKIIADRKASGEQSDDLLTHMLNGKDPETGEPLDDENIRYQIITFLIAGHETTSGLLSFATYFLLKHPDKLKKAYEEVDRVLTDAAPTYKQVLELTYIRMILNESLRLWPTAPAFSLYPKEDTVIGGKFPITTNDRISVLIPQLHRDRDAWGKDAEEFRPERFEHQDQVPHHAYKPFGNGQRACIGMQFALHEATLVLGMILKYFTLIDHENYELDIKQTLTLKPGDFHISVQSRHQEAIHADVQAAE
modifications: Chimeric Cytochrome P450 heme group sequence from Bacillus megaterium and Bacillus subtilis
B4: Chimera 285-341: CYP102A1 heme domain with residues 285-341 from CYP102A2 (protein)
chain: TIKEMPQPKTFGELKNLPLLNTDKPVQALMKIADELGEIFKFEAPGRVTRYLSSQRLIKEACDESRFDKNLSQALKFVRDFAGDGLATSWTHEKNWKKAHNILLPSFSQQAMKGYHAMMVDIAVQLVQKWERLNADEHIEVPEDMTRLTLDTIGLCGFNYRFNSFYRDQPHPFITSMVRALDEAMNKLQRANPDDPAYDENKRQFQEDIKVMNDLVDKIIADRKASGEQSDDLLTHMLNGKDPETGEPLDDENIRYQIITFLIAGHETTSGLLSFALYFLVKNPDKLKKAYEEVDRVLTDAAPTYKQVLELTYIRMILNESLRLWPTAPAFSLYPKEDTVIGGEYPLEKGDELMVLIPQLHRDKTIWGDDVEEFRPERFENPSAIPQHAFKPFGNGQRACIGQQFALHEATLVLGMMLKHFDFEDHTNYELDIKETLTLKPEGFVVKAKSKKIPLGGIPSPST
modifications: Chimeric Cytochrome P450 heme group sequence from Bacillus megaterium and Bacillus subtilis
notes: CYP102A1 heme domain with residues 285-341 from CYP102A2
B5: Chimera 191-335: CYP102A1 heme domain with residues 191-335 from CYP102A2 (protein)
chain: TIKEMPQPKTFGELKNLPLLNTDKPVQALMKIADELGEIFKFEAPGRVTRYLSSQRLIKEACDESRFDKNLSQALKFVRDFAGDGLATSWTHEKNWKKAHNILLPSFSQQAMKGYHAMMVDIAVQLVQKWERLNADEHIEVPEDMTRLTLDTIGLCGFNYRFNSFYRDQPHPFITSMVRALDEAMNKLQRLDVQDKLMVRTKRQFRYDIQTMFSLVDSIIAERRANGDQDEKDLLARMLNVEDPETGEKLDDENIRFQIITFLIAGHETTSGLLSFATYFLLKHPDKLKKAYEEVDRVLTDAAPTYKQVLELTYIRMILNESLRLWPTAPAFSLYPKEDTVLGGEYPLEKGDELMVLIPQLHRDKTIWGDDVEEFRPERFENPSAIPQHAFKPFGNGQRACIGQQFALHEATLVLGMMLKHFDFEDHTNYELDIKETLTLKPEGFVVKAKSKKIPLGGIPSPST
modifications: Chimeric Cytochrome P450 heme group sequence from Bacillus megaterium and Bacillus subtilis
notes: CYP102A1 heme domain with residues 191-335 from CYP102A2
B6: Chimera 169-197: CYP102A1 heme domain with residues 169-197 from CYP102A2 (protein)
chain: TIKEMPQPKTFGELKNLPLLNTDKPVQALMKIADELGEIFKFEAPGRVTRYLSSQRLIKEACDESRFDKNLSQALKFVRDFAGDGLATSWTHEKNWKKAHNILLPSFSQQAMKGYHAMMVDIAVQLVQKWERLNADEHIEVPEDMTRLTLDTIGLCGFNYRFNSFYRDTPHPFINSMVRALDEAMHQMQRLDVQDKLYDENKRQFQEDIKVMNDLVDKIIADRKASGEQSDDLLTHMLNGKDPETGEPLDDENIRYQIITFLIAGHETTSGLLSFALYFLVKNPHVLQKAAEEAARVLVDPVPSYKQVKQLKYVGMVLNEALRLWPTAPAFSLYAKEDTVLGGEYPLEKGDELMVLIPQLHRDKTIWGDDVEEFRPERFENPSAIPQHAFKPFGNGQRACIGQQFALHEATLVLGMMLKHFDFEDHTNYELDIKETLTLKPEGFVVKAKSKKIPLGGIPSPST
modifications: Chimeric Cytochrome P450 heme group sequence from Bacillus megaterium and Bacillus subtilis
notes: CYP102A1 heme domain with residues 169-197 from CYP102A2
B7: Chimera 169-197M: mirror chimera of 169-197, sequences from opposite parents at every position (protein)
chain: KETSPIPQPKTFGPLGNLPLIDKDKPTLSLIKLAEEQGPIFQIHTPAGTTIVVSGHELVKEVCDEERFDKSIEGALEKVRAFSGDGLATSWTHEPNWRKAHNILMPTFSQRAMKDYHEKMVDIAVQLIQKWARLNPNEAVDVPGDMTRLTLDTIGLCGFNYRFNSYYREQPHPFITSMVRALDEAMNKLQRANPDDPAMVRTKRQFRYDIQTMFSLVDSIIAERRANGDQDEKDLLARMLNVEDPETGEKLDDENIRFQIITFLIAGHETTSGLLSFATYFLLKHPDKLKKAYEEVDRVLTDAAPTYKQVLELTYIRMILNESLRLWPTAPAFSLYPKEDTVIGGKFPITTNDRISVLIPQLHRDRDAWGKDAEEFRPERFEHQDQVPHHAYKPFGNGQRACIGMQFALHEATLVLGMILKYFTLIDHENYELDIKQTLTLKPGDFHISVQSRHQEAIHADVQAAE
modifications: Chimeric Cytochrome P450 heme group sequence from Bacillus megaterium and Bacillus subtilis
B8: Chimera 65-256: CYP102A1 heme domain with residues 65-256 from CYP102A2 (protein)
chain: TIKEMPQPKTFGELKNLPLLNTDKPVQALMKIADELGEIFKFEAPGRVTRYLSSQRLIKEACDEERFDKSIEGALEKVRAFSGDGLATSWTHEPNWRKAHNILMPTFSQRAMKDYHEKMVDIAVQLIQKWARLNPNEAVDVPGDMTRLTLDTIGLCGFNYRFNSYYRETPHPFINSMVRALDEAMHQMQRLDVQDKLMVRTKRQFRYDIQTMFSLVDSIIAERRANGDQDEKDLLARMLNVEDPETGEKLDDENIRFQIITFLIAGHETTSGLLSFALYFLVKNPHVLQKAAEEAARVLVDPVPSYKQVKQLKYVGMVLNEALRLWPTAPAFSLYAKEDTVLGGEYPLEKGDELMVLIPQLHRDKTIWGDDVEEFRPERFENPSAIPQHAFKPFGNGQRACIGQQFALHEATLVLGMMLKHFDFEDHTNYELDIKETLTLKPEGFVVKAKSKKIPLGGIPSPST
modifications: Chimeric Cytochrome P450 heme group sequence from Bacillus megaterium and Bacillus subtilis
notes: CYP102A1 heme domain with residues 65-256 from CYP102A2
B9: Chimera 118-194: CYP102A1 heme domain with residues 118-194 from CYP102A2 (protein)
chain: TIKEMPQPKTFGELKNLPLLNTDKPVQALMKIADELGEIFKFEAPGRVTRYLSSQRLIKEACDESRFDKNLSQALKFVRDFAGDGLATSWTHEKNWKKAHNILLPSFSQQAMKGYHAKMVDIAVQLIQKWARLNPNEAVDVPGDMTRLTLDTIGLCGFNYRFNSYYRETPHPFINSMVRALDEAMHQMQRLDVQDPAYDENKRQFQEDIKVMNDLVDKIIADRKASGEQSDDLLTHMLNGKDPETGEPLDDENIRYQIITFLIAGHETTSGLLSFALYFLVKNPHVLQKAAEEAARVLVDPVPSYKQVKQLKYVGMVLNEALRLWPTAPAFSLYAKEDTVLGGEYPLEKGDELMVLIPQLHRDKTIWGDDVEEFRPERFENPSAIPQHAFKPFGNGQRACIGQQFALHEATLVLGMMLKHFDFEDHTNYELDIKETLTLKPEGFVVKAKSKKIPLGGIPSPST
modifications: Chimeric Cytochrome P450 heme group sequence from Bacillus megaterium and Bacillus subtilis
notes: CYP102A1 heme domain with residues 118-194 from CYP102A2

Test: Folding by reduced CO difference spectroscopy (Soret band)
Type: physicochemical
Settings: for Folded: reduced CO difference spectroscopy; for λ max for Soret band: reduced CO difference spectrum

Molecule | Folded | λ max for Soret band
B1 | yes | 420 nm and 421 nm
B2 | yes | 449 nm
B3 | yes | 448 nm
B4 | yes | 448 nm
B5 | yes | 449 nm
B6 | yes | 449 nm
B7 | yes | 449 nm
B8 | yes | 447 nm
B9 | yes | 449 nm

Values joined by “and” are separate entries in the source; they are usually repeats but may differ in a detail not shown here. Identical values can stand only once.
